Measured values reported in PubChem BioAssay AID2685 (National Center for Advancing Translational Sciences (NCATS), 2010).
The list shows a part of the results. The main result of the screen is listed elsewhere. These columns were measured beside it and carry no call. Most of these compounds were active or inconclusive in the main read-out, so they are no random draw. The note in brackets gives the kind of curve behind each potency; many fits are weak.

Assay: qHTS Assay for Lipid Storage Modulators in Drosophila S3 Cells;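 as to cell number change: cells counted by Cell Tracker Red CMTPX staining in the red channel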
Settings: BODIPY lipid droplet fluorescence, 18-24 h; for cell number change: measured here: cell count max response, cells fed with added oleic acid
Summary of the method: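 Drosophila S3 cells loaded with oleic acid (400 uM, as added) and compounds at several concentrations; lipid droplets imaged by 488-nm laser-scanning cytometry, 500–530 nm intensity and object ratio to cell channel. Percent activity normalized to 20 uM Triacsin C.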

[1] = measured here: lipid fluorescence (Fed channel) AC50, cells fed with added oleic acid
[2] = measured here: cell number channel AC50, cells fed with added oleic acid

Row | SMILES | cell number change [%] | AC50 [1] | AC50 [2]
1 | O=C(N/N=C/c1ccco1)c1cc(-c2cccc(Br)c2)nc2ccccc12 | 17.2 | 2.31 µM [falling, partial curve, poor fit] | –
2 | O=C(/C=C/c1ccccc1O)c1ccc(Cl)cc1 | -28.1 | 20.6 µM [falling, single point] | –
3 | Cc1ccnc(NC(=O)c2cnc(Cl)c(Cl)c2)c1 | -15.2 | 29.1 µM [falling, single point] | –
4 | c1ccc(NC2=NCCN2CC2CCCC2)cc1 | 18.1 | – | –
5 | Cn1c(SCC(=O)NCc2ccc(F)cc2)nc2ccccc21 | -31.8 | 29.1 µM [falling, single point] | 29.1 µM [falling, single point]
6 | Cc1ccn2cc(C(=O)Nc3nnc(C)s3)nc2c1 | 1.47 | – | –
7 | CC1CCN(C(=O)CS(=O)(=O)Cc2ccccc2)CC1 | – | 0.58 µM [rising, single point] | –
8 | COc1ccc(CN(C)C(=O)CCN=C2NS(=O)(=O)c3ccccc32)c(OC)c1 | -6.95 | 1.16 µM [falling, full curve] | 1.03 µM [falling, full curve]
9 | Fc1ccc(CN2CCN(c3ncccn3)CC2)cc1 | 7.01 | – | –
10 | O=C(N/C(=C/c1ccc(F)cc1)C(=O)N1CCOCC1)c1ccccc1 | 10.5 | 29.1 µM [rising, single point] | –
11 | CC1=CC(=O)C=C(C)C1=NOc1ccc([N+](=O)[O-])cc1 | 40.7 | – | 7.31 µM [rising, partial curve]
12 | Cc1ccc(N(CC(=O)NC2CCCC2)C(=O)c2nsc(Cl)c2Cl)cc1 | -12.7 | 6.51 µM [rising, single point] | –
13 | CCC(C)(C)NC(=O)C(c1ccc(F)cc1)N(CCOC)C(=O)CCC(=O)Nc1nccs1 (stereo not drawn) | – | 18.4 µM [falling, partial curve] | –
14 | Cn1ncc(Br)c1C(=O)NC1CCCCCC1 | -6.8 | – | –
15 | CCc1ccc(NC(=O)CSc2nnnn2-c2cccnc2)cc1 | -2.21 | 29.1 µM [rising, single point] | –
16 | COc1ccc(C2=NN(C)C(=NCc3ccccc3)SC2)cc1 | 2.38 | – | 2.91 µM [rising, single point]
17 | CCCOC(=O)Nc1ccc(S(=O)(=O)Nn2cnnc2)cc1 | -1.17 | 6.51 µM [rising, partial curve, poor fit] | –
18 | C=CCNC(=O)CN(c1ccc(F)c(Cl)c1)S(C)(=O)=O | -5.93 | 0.731 µM [falling, single point] | –
19 | COC(=O)c1cc(CNC(=O)C(C)NS(=O)(=O)c2ccc(C)c(C)c2)ccc1OC (stereo not drawn) | – | 0.58 µM [falling, single point] | –

Complete entries from above:
O=C(N/N=C/c1ccco1)c1cc(-c2cccc(Br)c2)nc2ccccc12 reads cell number change [%]: 17.2; AC50 [1]: 2.31 µM [falling, partial curve, poor fit]
CC1CCN(C(=O)CS(=O)(=O)Cc2ccccc2)CC1 reads AC50 [1]: 0.58 µM [rising, single point]
